This is an account of results in article PMC10853261.

Sequences of proteins named here, by UniProt entry; tags and fusion partners are left off.
UniProt O35739: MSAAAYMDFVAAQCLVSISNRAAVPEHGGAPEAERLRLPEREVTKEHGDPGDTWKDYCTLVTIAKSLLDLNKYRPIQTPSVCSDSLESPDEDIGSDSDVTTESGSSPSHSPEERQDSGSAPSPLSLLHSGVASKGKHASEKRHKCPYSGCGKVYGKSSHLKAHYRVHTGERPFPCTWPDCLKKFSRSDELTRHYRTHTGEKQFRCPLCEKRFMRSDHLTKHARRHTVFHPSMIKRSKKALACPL
UniProt O09106: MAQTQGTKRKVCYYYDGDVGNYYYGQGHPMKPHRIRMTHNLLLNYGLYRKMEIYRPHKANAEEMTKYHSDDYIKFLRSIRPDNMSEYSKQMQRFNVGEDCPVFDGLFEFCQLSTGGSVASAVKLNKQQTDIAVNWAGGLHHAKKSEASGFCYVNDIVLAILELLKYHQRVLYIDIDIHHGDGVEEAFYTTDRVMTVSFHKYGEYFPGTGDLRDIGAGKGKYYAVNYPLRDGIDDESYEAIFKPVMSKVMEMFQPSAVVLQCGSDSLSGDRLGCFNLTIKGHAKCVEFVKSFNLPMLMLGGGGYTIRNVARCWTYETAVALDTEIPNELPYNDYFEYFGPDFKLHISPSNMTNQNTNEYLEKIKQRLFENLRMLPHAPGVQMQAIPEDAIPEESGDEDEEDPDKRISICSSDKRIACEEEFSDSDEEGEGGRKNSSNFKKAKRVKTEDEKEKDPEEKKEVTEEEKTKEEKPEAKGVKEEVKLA
UniProt P70288: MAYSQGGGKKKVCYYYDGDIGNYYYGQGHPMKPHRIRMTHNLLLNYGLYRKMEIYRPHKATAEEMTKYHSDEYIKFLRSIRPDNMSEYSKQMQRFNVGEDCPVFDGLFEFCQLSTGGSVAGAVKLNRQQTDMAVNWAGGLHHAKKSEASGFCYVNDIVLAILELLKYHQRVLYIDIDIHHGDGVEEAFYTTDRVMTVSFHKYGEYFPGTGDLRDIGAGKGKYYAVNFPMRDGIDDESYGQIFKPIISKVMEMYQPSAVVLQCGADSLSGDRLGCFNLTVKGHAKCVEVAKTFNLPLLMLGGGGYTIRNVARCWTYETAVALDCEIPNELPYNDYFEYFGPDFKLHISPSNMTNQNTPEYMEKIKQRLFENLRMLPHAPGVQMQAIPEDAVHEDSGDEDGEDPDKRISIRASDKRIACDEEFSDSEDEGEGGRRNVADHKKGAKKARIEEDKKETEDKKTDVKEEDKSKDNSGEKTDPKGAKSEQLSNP

Test [1] deals with Krüppel-like factor 9 (mouse (endogenous in mouse peritoneal macrophages)) (UniProt O35739). As to the kind of experiment: co-IP; whole-cell lysates of mPMs immunoprecipitated with antibodies against KLF9 or SIN3A, then immunoblotted for SIN3A, HDAC1, HDAC2 or KLF9; endogenous proteins. (A western blot detects proteins with antibodies after separation by electrophoresis.)
For test [2], the target named is T1, SIN3A (mouse (endogenous in mouse peritoneal macrophages)) (UniProt Q60520).
T1 sequence: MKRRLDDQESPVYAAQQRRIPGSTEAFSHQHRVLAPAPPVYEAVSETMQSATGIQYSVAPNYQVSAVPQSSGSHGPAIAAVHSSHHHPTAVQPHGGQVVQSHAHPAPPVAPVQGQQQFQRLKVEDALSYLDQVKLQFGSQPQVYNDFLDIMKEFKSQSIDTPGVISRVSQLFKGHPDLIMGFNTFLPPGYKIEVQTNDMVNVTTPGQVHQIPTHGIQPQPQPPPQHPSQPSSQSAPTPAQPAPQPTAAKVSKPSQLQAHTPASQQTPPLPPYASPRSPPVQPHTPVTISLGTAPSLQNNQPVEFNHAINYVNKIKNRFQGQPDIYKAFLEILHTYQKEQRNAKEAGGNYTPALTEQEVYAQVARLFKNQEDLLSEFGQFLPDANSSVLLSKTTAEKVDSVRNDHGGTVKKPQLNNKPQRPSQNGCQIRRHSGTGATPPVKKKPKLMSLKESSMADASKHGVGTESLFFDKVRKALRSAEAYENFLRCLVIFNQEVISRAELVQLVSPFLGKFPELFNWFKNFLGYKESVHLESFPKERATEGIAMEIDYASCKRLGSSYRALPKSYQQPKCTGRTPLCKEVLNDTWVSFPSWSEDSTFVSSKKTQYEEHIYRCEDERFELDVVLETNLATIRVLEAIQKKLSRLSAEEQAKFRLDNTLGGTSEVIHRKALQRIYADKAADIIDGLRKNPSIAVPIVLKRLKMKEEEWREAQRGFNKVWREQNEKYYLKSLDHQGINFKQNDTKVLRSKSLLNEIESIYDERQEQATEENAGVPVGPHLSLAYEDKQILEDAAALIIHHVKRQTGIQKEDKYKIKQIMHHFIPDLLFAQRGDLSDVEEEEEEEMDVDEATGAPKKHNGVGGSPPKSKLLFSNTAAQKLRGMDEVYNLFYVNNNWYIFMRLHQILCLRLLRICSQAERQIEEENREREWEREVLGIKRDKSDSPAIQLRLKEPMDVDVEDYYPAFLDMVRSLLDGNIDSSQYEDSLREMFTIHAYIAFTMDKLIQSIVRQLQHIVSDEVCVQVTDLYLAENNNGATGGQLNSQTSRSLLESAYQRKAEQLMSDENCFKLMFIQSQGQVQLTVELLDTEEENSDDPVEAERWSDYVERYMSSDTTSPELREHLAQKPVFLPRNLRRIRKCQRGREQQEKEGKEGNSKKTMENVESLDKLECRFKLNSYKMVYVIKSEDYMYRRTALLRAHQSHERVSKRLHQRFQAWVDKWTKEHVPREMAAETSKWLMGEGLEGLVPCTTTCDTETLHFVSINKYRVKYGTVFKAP
The description is as above.

No constants are given. Whether binding was seen depends on the method and setting. In cells and extracts the contact can be indirect. Some binding calls cover weakened binding; strength is not graded here.

On to “HDAC1 (from UniProt O09106 1-482) (enzyme)”, for which the binding result in test [1] and in test [2] was “binds” in each case.

As for “HDAC2 (from UniProt P70288 1-488) (enzyme)”, the binding entry in test [1] and in test [2] was “binds” each time. As for “Krüppel-like factor 9 (from UniProt O35739 1-244)”, in test [2], the binding result was “binds”.

B1: SIN3A (protein, UniProt Q60520 1-1274)
chain: MKRRLDDQESPVYAAQQRRIPGSTEAFSHQHRVLAPAPPVYEAVSETMQSATGIQYSVAPNYQVSAVPQSSGSHGPAIAAVHSSHHHPTAVQPHGGQVVQSHAHPAPPVAPVQGQQQFQRLKVEDALSYLDQVKLQFGSQPQVYNDFLDIMKEFKSQSIDTPGVISRVSQLFKGHPDLIMGFNTFLPPGYKIEVQTNDMVNVTTPGQVHQIPTHGIQPQPQPPPQHPSQPSSQSAPTPAQPAPQPTAAKVSKPSQLQAHTPASQQTPPLPPYASPRSPPVQPHTPVTISLGTAPSLQNNQPVEFNHAINYVNKIKNRFQGQPDIYKAFLEILHTYQKEQRNAKEAGGNYTPALTEQEVYAQVARLFKNQEDLLSEFGQFLPDANSSVLLSKTTAEKVDSVRNDHGGTVKKPQLNNKPQRPSQNGCQIRRHSGTGATPPVKKKPKLMSLKESSMADASKHGVGTESLFFDKVRKALRSAEAYENFLRCLVIFNQEVISRAELVQLVSPFLGKFPELFNWFKNFLGYKESVHLESFPKERATEGIAMEIDYASCKRLGSSYRALPKSYQQPKCTGRTPLCKEVLNDTWVSFPSWSEDSTFVSSKKTQYEEHIYRCEDERFELDVVLETNLATIRVLEAIQKKLSRLSAEEQAKFRLDNTLGGTSEVIHRKALQRIYADKAADIIDGLRKNPSIAVPIVLKRLKMKEEEWREAQRGFNKVWREQNEKYYLKSLDHQGINFKQNDTKVLRSKSLLNEIESIYDERQEQATEENAGVPVGPHLSLAYEDKQILEDAAALIIHHVKRQTGIQKEDKYKIKQIMHHFIPDLLFAQRGDLSDVEEEEEEEMDVDEATGAPKKHNGVGGSPPKSKLLFSNTAAQKLRGMDEVYNLFYVNNNWYIFMRLHQILCLRLLRICSQAERQIEEENREREWEREVLGIKRDKSDSPAIQLRLKEPMDVDVEDYYPAFLDMVRSLLDGNIDSSQYEDSLREMFTIHAYIAFTMDKLIQSIVRQLQHIVSDEVCVQVTDLYLAENNNGATGGQLNSQTSRSLLESAYQRKAEQLMSDENCFKLMFIQSQGQVQLTVELLDTEEENSDDPVEAERWSDYVERYMSSDTTSPELREHLAQKPVFLPRNLRRIRKCQRGREQQEKEGKEGNSKKTMENVESLDKLECRFKLNSYKMVYVIKSEDYMYRRTALLRAHQSHERVSKRLHQRFQAWVDKWTKEHVPREMAAETSKWLMGEGLEGLVPCTTTCDTETLHFVSINKYRVKYGTVFKAP
Take B1: the binding entry in test [1] was “binds”.
